Measured values as given in paper PMC4773433, “The Bub1–Plk1 kinase complex promotes spindle checkpoint signalling through Cdc20 phosphorylation” (Nature Communications, 2016).
Results are given in words; binding and its absence hold for the method and conditions named. For some of these results: In cells and extracts the contact can be indirect. Some entries that bind do so weakly or less than the wild type. For some of these results: Tags and fused reporters may be left off the sequences shown.

Amino acid sequences for entries named in this document (tags omitted). A change or cut given only in a name is not applied to a line headed by its entry. Chains listed by the source or under a name are the forms on record and can include a tag or linker.
UniProt Q12834: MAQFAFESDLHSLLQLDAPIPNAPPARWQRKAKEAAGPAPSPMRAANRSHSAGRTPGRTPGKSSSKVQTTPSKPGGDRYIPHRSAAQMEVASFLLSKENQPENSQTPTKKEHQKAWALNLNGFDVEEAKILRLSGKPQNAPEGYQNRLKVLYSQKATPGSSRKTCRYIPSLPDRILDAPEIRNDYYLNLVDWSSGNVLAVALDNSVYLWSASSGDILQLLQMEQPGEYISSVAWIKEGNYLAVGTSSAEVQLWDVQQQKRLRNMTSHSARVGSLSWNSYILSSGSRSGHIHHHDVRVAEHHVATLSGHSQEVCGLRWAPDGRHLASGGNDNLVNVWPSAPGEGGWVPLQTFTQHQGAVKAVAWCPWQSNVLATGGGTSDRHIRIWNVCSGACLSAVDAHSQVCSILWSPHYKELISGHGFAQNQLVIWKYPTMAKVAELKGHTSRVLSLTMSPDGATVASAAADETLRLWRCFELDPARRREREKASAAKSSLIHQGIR
Flag-Cdc20 5A (Q12834, form named): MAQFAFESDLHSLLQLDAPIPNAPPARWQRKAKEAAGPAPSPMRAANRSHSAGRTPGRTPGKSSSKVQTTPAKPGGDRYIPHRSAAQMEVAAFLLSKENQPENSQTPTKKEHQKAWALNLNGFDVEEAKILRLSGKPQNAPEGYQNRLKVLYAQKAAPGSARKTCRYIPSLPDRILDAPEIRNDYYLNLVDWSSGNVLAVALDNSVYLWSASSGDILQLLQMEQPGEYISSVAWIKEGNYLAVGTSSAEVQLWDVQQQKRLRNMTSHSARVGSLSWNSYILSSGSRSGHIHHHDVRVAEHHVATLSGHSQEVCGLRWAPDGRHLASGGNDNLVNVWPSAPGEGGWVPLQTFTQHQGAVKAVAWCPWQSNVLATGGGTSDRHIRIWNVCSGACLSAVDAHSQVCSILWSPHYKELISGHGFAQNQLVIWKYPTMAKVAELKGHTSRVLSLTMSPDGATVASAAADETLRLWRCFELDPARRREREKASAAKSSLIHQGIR
UniProt O43684: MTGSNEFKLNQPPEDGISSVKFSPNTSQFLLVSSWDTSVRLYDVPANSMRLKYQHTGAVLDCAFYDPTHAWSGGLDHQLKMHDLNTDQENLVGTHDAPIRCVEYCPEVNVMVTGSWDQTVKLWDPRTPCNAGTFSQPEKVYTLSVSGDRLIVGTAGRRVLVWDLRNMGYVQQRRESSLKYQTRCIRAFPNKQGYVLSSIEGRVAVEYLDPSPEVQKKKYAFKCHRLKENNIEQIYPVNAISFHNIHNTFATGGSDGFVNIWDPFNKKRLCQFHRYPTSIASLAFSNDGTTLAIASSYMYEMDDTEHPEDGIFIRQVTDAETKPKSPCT

B1: p31^comet (protein, UniProt Q15013 1-274)
chain: MAAPEAEVLSSAAVPDLEWYEKSEETHASQIELLETSSTQEPLNASEAFCPRDCMVPVVFPGPVSQEGCCQFTCELLKHIMYQRQQLPLPYEQLKHFYRKPSPQAEEMLKKKPRATTEVSSRKCQQALAELESVLSHLEDFFARTLVPRVLILLGGNALSPKEFYELDLSLLAPYSVDQSLSTAACLRRLFRAIFMADAFSELQAPPLMGTVVMAQGHRNCGEDWFRPKLNYRVPSRGHKLTVTLSCGRPSIRTTAWEDYIWFQAPVTFKGFRE

Tests used:
[1] = biological target: T1, Strep–His6–Bub1^ΔKinase (residues 1–723) (human) (UniProt O43683); test: affinity co-purification of co-expressed proteins; Strep–His6–Bub1 (full-length or ΔKinase) co-expressed with His6–Bub3 in Sf9 cells; complexes purified on Strep-Tactin Superflow Plus resin in buffer B (50 mM Tris-HCl pH 7.7, 200 mM NaCl) and eluted with 15 mM D-desthiobiotin
T1 sequence: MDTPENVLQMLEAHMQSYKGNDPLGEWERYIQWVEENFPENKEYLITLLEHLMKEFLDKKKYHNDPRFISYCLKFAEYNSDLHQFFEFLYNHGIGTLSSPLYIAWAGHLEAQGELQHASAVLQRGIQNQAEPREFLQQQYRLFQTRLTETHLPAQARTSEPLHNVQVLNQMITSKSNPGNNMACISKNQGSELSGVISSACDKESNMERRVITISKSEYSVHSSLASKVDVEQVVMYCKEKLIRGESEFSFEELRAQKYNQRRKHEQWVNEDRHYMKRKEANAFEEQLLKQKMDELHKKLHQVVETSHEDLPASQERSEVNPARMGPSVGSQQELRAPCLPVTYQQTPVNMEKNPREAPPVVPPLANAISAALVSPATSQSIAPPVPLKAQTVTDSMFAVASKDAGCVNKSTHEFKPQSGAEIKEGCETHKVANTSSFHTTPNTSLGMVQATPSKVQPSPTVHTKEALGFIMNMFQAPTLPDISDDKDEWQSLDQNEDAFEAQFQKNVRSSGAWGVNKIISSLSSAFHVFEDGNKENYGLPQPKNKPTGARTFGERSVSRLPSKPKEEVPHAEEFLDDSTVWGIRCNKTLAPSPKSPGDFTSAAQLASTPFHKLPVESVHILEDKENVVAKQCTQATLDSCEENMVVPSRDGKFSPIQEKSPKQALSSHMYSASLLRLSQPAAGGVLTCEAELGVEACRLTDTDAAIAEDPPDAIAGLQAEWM

[2] = biological target: Strep–His6–Bub1 (full-length) (human) (UniProt O43683); test: as above
[3] = biological target: Flag-Cdc20 WT (human) (UniProt Q12834); test: co-IP; anti-Flag immunoprecipitation from lysates of HeLa Tet-On cells stably expressing Flag-Cdc20 WT or 5A, arrested in mitosis by 5 μM nocodazole; blots
[4] = biological target: Flag-Cdc20 5A (human) (UniProt Q12834); test: as above

Molecule | binding [1] | binding [2] | binding [3] | binding [4]
His6–Bub3 (from UniProt O43684 1-328) | binds | binds |  | 
B1 |  |  | binds | binds
